Results reported in patent publication US11597748B2 (CAREGEN CO., LTD., priority 2017, dated 2023).

Assay: general procedure: Fmoc solid-phase peptide synthesis; CTC resin; HBTu/HoBt/DIEA
Settings: whole synthesis

PEPTIDE1{K.W.G.G.G.R.Y}$$$$V2.0
crude mass: 70.8 g | crude yield (scale of the general procedure 70 g resin): 97.0%

Strings that start with PEPTIDE1 are HELM notation: dots part the residues, brackets hold end groups and non-standard residues.
